{"source": "PubChem BioAssay AID2685", "about": "(National Center for Advancing Translational Sciences (NCATS), 2010)", "note": "In all, about 320,000 compounds went through this assay and about 2,100 (0.66%) were called active. The shares of active, inactive and inconclusive entries below differ from those in the screen. Calls come from the whole dose curve; as a rule, active = well fitted inhibition curve with a large enough effect in the signal ratio, with a control signal flat (not every such curve was filed as active); inconclusive = small, poorly fitted or top-dose-only effect, or effect the other way, or a change in a side signal; inactive = flat fitted curve, though single readings scatter; the % refers to the signal ratio. A potency beside an inconclusive call is a rough fit, not a confirmed value. % is set by controls: 0 for no effect and ±100 for the full control effect; potency is the fitted concentration of half-maximal effect."}
{"experiment": "qHTS Assay for Lipid Storage Modulators in Drosophila S3 Cells", "details": "BODIPY lipid droplet fluorescence, 18-24 h, cells fed with added oleic acid; lipid storage change, negative = inhibition: at 46.1 µM (top of the series) unless noted", "in_short": "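Drosophila S3 cells loaded with oleic acid (400 uM, as added) and compounds at several concentrations; lipid droplets imaged by 488-nm laser-scanning cytometry, 500–530 nm intensity and object ratio to cell channel. Percent activity normalized to 20 uM Triacsin C.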"}
{"smiles": "Cc1c(C)n(Cc2ccc(F)cc2)c2ccc(C(=O)NCCCN3CCOCC3)cc12", "Potency": "active: 29.1 µM"}
{"smiles": "CS(=O)(=O)c1ccc2nc(NC(=O)Nc3ccc(Cl)cc3)sc2c1", "Potency": "inconclusive: 25.9 µM [falling, single point]"}
{"smiles": "COC(=O)C(NC(=O)c1ccccc1Cl)(Nc1ncc(S(=O)(=O)c2ccc([N+](=O)[O-])cc2)s1)C(F)(F)F", "note": "(stereo not drawn)", "Potency": "active: 20.6 µM"}
{"smiles": "CCc1cccc(NC(=O)c2sc3nc4n(c(=O)c3c2C)CCC4)c1", "Potency": "active: 5.8 µM"}
{"smiles": "CCCc1cc(=O)oc2c(CNc3ccc(OCC)cc3)c(O)ccc12", "Potency": "inconclusive: 0.092 µM [activator, full curve, poor fit]"}
{"smiles": "CCC1SC(CC)C(=O)N(CC(=O)Nc2ccc3c(c2)OCO3)C1=O", "note": "(stereo not drawn)", "lipid storage change, negative = inhibition": "inconclusive: 22.6%"}
{"smiles": "Cc1ccccc1-c1nc(S(=O)(=O)c2ccc(Cl)cc2)c(NCCN2CCOCC2)o1", "lipid storage change, negative = inhibition": "inconclusive: 197%"}
{"smiles": "CCOc1cc(N2CCOCC2)c(OCC)cc1NC(=O)CN1CCSC1=O", "Potency": "inconclusive: 29.1 µM [falling, single point]"}
{"smiles": "CCc1noc(C)c1C(=O)Nc1cccc2ncccc12", "Potency": "active: 2.31 µM"}
{"smiles": "COc1ccc(OC)c2c1nc1n2CCS1", "lipid storage change, negative = inhibition": "inconclusive: 12.6%"}
{"smiles": "O=C(NCc1ccncc1)NC12CC3CC(CC(C3)C1)C2", "lipid storage change, negative = inhibition": "inconclusive: 13.1%"}
{"smiles": "COCCN1CCN(C(=O)C2CCC(=O)N(CCc3ccc(Cl)cc3)C2)CC1", "note": "(stereo not drawn)", "Potency": "inconclusive: 29.1 µM [activator, single point]"}
{"smiles": "CC1CCCCN1C(=O)CSc1nnc(-c2ccccc2O)o1", "note": "(stereo not drawn)", "Potency": "inconclusive: 2.91 µM [activator, single point]"}
{"smiles": "Cc1ccc2c(c1)N(CC(=O)NCCCN1CCCCC1)C(=O)c1cccnc1O2", "Potency": "inconclusive: 1.84 µM [activator, partial curve]"}
{"smiles": "CCOC(=O)Cn1cc(/C=C(/C#N)C(=O)NC(C)C)c2ccccc21", "Potency": "inconclusive: 29.1 µM [activator, single point]"}
{"smiles": "CCN(CC)C1CCN(C(=O)c2cc(COc3cccc4cccnc34)on2)C1", "note": "(stereo not drawn)", "lipid storage change, negative = inhibition": "inconclusive: 22.7%"}
{"smiles": "Nc1cccnc1-n1nc(C(F)(F)F)cc1C(F)(F)F", "lipid storage change, negative = inhibition": "inconclusive: 9.93%"}
{"smiles": "COc1ccc(O)c(CN2CCCC(C(=O)Nc3cccc(-n4cccn4)c3)C2)c1", "note": "(stereo not drawn)", "Potency": "inconclusive: 29.1 µM [activator, single point]"}
{"smiles": "Cc1cc(C)n(CC(O)COc2ccc(Cl)cc2)n1", "note": "(stereo not drawn)", "lipid storage change, negative = inhibition": "inconclusive: 8.33%"}
{"smiles": "O=C1NC(=Nc2ccccc2)S/C1=C/c1cccnc1", "lipid storage change, negative = inhibition": "inconclusive: -3.17%"}
{"smiles": "O=c1[nH]cnc2scc(-c3cccs3)c12", "lipid storage change, negative = inhibition": "inconclusive: -1.57%"}
{"smiles": "COc1cccc(-c2nc(OC(C)C)c3ccccc3n2)c1", "lipid storage change, negative = inhibition": "inconclusive: -21.6%"}
{"smiles": "CCOC(=O)c1nnc(-c2ccccc2)o1", "Potency": "inconclusive: 4.11 µM [falling, full curve, poor fit]"}
{"smiles": "O=C(Nc1ccccc1N1CCOCC1)c1cccc(NS(=O)(=O)c2ccc(F)c(F)c2)c1", "lipid storage change, negative = inhibition": "inconclusive: -38.5%"}
{"smiles": "CCCn1nnc(NC(=O)c2cc(Br)ccc2OC)n1", "lipid storage change, negative = inhibition": "inconclusive: 83.3%"}
{"smiles": "Cc1ccc(C(=O)NNC(=O)C2CCN(C(=O)OC(C)(C)C)CC2)cc1", "Potency": "inconclusive: 2.31 µM [falling, partial curve]"}
{"smiles": "COc1cc(CN(C)c2ncnc3sccc23)ccc1OC(F)F", "lipid storage change, negative = inhibition": "inconclusive: -12.7%"}
{"smiles": "COc1ccc(NS(=O)(=O)c2cc(Cl)ccc2Cl)cc1S(=O)(=O)N1CCCCC1", "lipid storage change, negative = inhibition": "inconclusive: 0.276%"}
{"smiles": "Cc1ccc(C)c(S(=O)(=O)N2CCCOC2CNC(=O)C(=O)NCc2ccco2)c1", "note": "(stereo not drawn)", "lipid storage change, negative = inhibition": "inconclusive: 29.5%"}
{"smiles": "CCC(C(=O)NCCN1CCOCC1)n1c2ccccc2c2nc(=O)cc(C)n21", "note": "(stereo not drawn)", "Potency": "inconclusive: 6.51 µM [falling, partial curve, poor fit]"}
{"smiles": "CCOc1ccc(N2CC(C(=O)Nc3nnc(Cc4ccc(OC)cc4)s3)CC2=O)cc1", "note": "(stereo not drawn)", "Potency": "inconclusive: 29.1 µM [falling, single point]"}
{"smiles": "Cc1ccc(F)cc1NC(=O)CSCc1c(C)noc1C", "Potency": "inconclusive: 29.1 µM [activator, single point]"}
{"smiles": "COCCNc1nc2nonc2nc1N(C)Cc1cccc2cnccc12", "lipid storage change, negative = inhibition": "inconclusive: 9.95%"}
{"smiles": "CC1CCCCN1S(=O)(=O)c1ccc(C(=O)Nc2nnc(-c3ccco3)o2)cc1", "note": "(stereo not drawn)", "lipid storage change, negative = inhibition": "inconclusive: -38.3%"}
{"smiles": "CCc1ccc(Nc2n[n+](-c3ccccc3)c(/C=C/c3ccccc3)s2)cc1", "Potency": "inconclusive: 32.6 µM [falling, single point]"}
{"smiles": "CCn1cc(/C=C/c2cc[n+](C)cc2)c2ccccc21", "lipid storage change, negative = inhibition": "inconclusive: -85.2%"}
{"smiles": "CN1C(=O)C(CC(=O)NC2CCCCC2)SC1=Nc1ccccc1", "note": "(stereo not drawn)", "lipid storage change, negative = inhibition": "inconclusive: 9.23%"}
{"smiles": "Cc1ccc(N2CCCCn3c2nc2c3c(=O)[nH]c(=O)n2C)cc1", "lipid storage change, negative = inhibition": "inconclusive: 33.7%"}
{"smiles": "Cc1cc(C)cc(OCC(=O)N2CCc3ccccc3C2)c1", "Potency": "inconclusive: 20.6 µM [activator, single point]"}
{"smiles": "CCOC(=O)c1c(C)nc2c(c1-c1ccc(OC)c(OC)c1)C(=O)c1ccccc1-2", "lipid storage change, negative = inhibition": "inconclusive: 10.3%"}
{"smiles": "COc1cc(C2=NOC(C(=O)Nc3ccc(C(C)=O)cc3)C2)cc(OC)c1OC", "note": "(stereo not drawn)", "lipid storage change, negative = inhibition": "inconclusive: -1.07%"}
{"smiles": "O=C1Nc2ccccc2C1C(C[N+](=O)[O-])c1ccccc1", "note": "(stereo not drawn)", "lipid storage change, negative = inhibition": "inconclusive: 9.78%"}
{"smiles": "CC(=O)c1sc2nc(CSc3nncn3C)[nH]c(=O)c2c1C", "lipid storage change, negative = inhibition": "inconclusive: 8.75%"}
{"smiles": "COc1ccc(-n2c(CCc3ccccc3)n[nH]c2=S)cc1", "lipid storage change, negative = inhibition": "inconclusive: -44.6% [cytotoxic] [at 0.00295 µM]"}
{"smiles": "CCOC(=O)C1CCCN(C(=O)c2ccc3[nH]c4c(c3c2)CC(C)CC4)C1", "note": "(stereo not drawn)", "Potency": "inconclusive: 9.2 µM [falling, partial curve]"}
{"smiles": "O=C(CSc1cc(Cl)ccc1Cl)NC1CCCc2ccccc21", "note": "(stereo not drawn)", "Potency": "inconclusive: 3.66 µM [activator, single point]"}
{"smiles": "Cc1onc(-c2c(Cl)cccc2Cl)c1C(=O)N1CCCc2ccccc21", "Potency": "inconclusive: 29.1 µM [rising, single point]"}
{"smiles": "CCOc1c(Br)cc(Br)cc1/C=C1\\SC(N)=NC1=O", "lipid storage change, negative = inhibition": "inconclusive: -15%"}
